No constants are given. Whether binding was seen depends on the method and setting. In cells and extracts the contact can be indirect. Some binding calls cover weakened binding; strength is not graded here.
Legend:
[1] = target: endogenous TRAPPC9 (human cells) (human (endogenous in HEK293 and Caco-2)) (UniProt Q96Q05); experiment: co-IP; similar co-IP with lysates from Caco-2 and CHO cells; data not shown
[2] = target: endogenous TRAPPC9 (human cells) (human (endogenous in HEK293 and Caco-2)) (UniProt Q96Q05); experiment: co-IP; native immunoprecipitation of endogenous proteins from lysate of about 2x10^7 HEK293 cells with antibody against TRAPPC9 (anti-LAMP2 as negative control); immunoblotting

The chains behind the UniProt entries cited, without tags or fusion partners.
UniProt Q96Q05: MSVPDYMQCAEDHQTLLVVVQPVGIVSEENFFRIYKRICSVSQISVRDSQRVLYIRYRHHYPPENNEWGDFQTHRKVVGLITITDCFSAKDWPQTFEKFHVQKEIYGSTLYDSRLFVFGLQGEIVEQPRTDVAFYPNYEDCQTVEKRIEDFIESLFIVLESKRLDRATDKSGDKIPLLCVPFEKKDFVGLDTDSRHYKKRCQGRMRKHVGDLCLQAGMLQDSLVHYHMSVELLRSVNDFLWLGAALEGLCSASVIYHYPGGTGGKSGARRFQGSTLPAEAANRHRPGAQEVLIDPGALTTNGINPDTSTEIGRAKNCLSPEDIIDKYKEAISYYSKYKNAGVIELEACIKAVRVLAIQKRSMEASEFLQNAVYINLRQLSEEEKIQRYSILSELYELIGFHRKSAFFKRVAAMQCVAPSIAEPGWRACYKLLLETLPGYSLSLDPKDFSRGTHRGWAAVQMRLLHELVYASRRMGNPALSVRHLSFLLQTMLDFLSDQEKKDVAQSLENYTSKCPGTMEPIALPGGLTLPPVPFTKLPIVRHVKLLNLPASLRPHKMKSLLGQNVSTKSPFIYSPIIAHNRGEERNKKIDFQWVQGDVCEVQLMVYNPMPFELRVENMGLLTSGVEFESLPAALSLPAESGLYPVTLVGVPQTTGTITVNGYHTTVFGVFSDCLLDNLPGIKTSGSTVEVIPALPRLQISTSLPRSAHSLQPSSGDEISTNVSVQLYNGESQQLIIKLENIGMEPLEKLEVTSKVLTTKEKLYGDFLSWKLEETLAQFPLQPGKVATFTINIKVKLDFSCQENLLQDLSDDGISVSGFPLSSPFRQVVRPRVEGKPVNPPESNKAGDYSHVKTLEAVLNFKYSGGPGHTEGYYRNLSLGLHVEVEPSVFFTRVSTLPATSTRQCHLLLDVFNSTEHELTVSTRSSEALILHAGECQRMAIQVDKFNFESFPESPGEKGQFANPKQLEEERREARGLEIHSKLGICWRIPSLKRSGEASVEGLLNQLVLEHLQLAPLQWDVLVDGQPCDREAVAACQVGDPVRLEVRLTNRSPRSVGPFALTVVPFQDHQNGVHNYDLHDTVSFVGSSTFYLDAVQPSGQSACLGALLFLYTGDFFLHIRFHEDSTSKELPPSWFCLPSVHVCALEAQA

| binding [1] | binding [2] | Molecule |
| --- | --- | --- |
| binds | binds | endogenous p150^Glued (human cells) (from UniProt Q14203-1 1-1278) |
| – | no binding | Golgin-97 (protein, UniProt Q92805 1-767) MFAKLKKKIAEETAVAQRPGGATRIPRSVSKESVASMGADSGDDFASDGSSSREDLSSQLLRRNEQIRKLEARLSDYAEQVRNLQKIKEKLEIALEKHQDSSMRKFQEQNETFQANRAKMAEGLALALARKDQEWSEKMDQLEKEKNILTAQLQEMKNQSMNLFQRRDEMDELEGFQQQELSKIKHMLLKKEESLGKMEQELEARTRELSRTQEELMNSNQMSSDLSQKLEELQRHYSTLEEQRDHVIASKTGAESKITALEQKEQELQALIQQLSIDLQKVTAETQEKEDVITHLQEKVASLEKRLEQNLSGEEHLQELLKEKTLAEQNLEDTRQQLLAARSSQAKAINTLETRVRELEQTLQASEEQLQQSKGIVAAQETQIQELAAANQESSHVQQQALALEQQFLERTQALEAQIVALERTRAADQTTAEQGMRQLEQENAALKECRNEYERSLQNHQFELKKLKEEWSQREIVSVAMAQALEEVRKQREEFQQQAANLTAIIDEKEQNLREKTEVLLQKEQEILQLERGHNSALLQIHQLQAELEALRTLKAEEAAVVAEQEDLLRLRGPLQAEALSVNESHVTSRAMQDPVFQLPTAGRTPNGEVGAMDLTQLQKEKQDLEQQLLEKNKTIKQMQQRMLELRKTLQKELKIRPDNELFEVREKPGPEMANMAPSVTNNTDLTDAREINFEYLKHVVLKFMSCRESEAFHLIKAVSVLLNFSQEEENMLKETLEYKMSWFGSKPAPKGSIRPSISNPRIPWS |
